# The other results are listed elsewhere or left out.
# By UniProt entry, the sequences of proteins in these tests, tags left out. Where a name states a change or a piece, a line headed by the entry shows the natural chain unless it says otherwise.
# UniProt Q92851: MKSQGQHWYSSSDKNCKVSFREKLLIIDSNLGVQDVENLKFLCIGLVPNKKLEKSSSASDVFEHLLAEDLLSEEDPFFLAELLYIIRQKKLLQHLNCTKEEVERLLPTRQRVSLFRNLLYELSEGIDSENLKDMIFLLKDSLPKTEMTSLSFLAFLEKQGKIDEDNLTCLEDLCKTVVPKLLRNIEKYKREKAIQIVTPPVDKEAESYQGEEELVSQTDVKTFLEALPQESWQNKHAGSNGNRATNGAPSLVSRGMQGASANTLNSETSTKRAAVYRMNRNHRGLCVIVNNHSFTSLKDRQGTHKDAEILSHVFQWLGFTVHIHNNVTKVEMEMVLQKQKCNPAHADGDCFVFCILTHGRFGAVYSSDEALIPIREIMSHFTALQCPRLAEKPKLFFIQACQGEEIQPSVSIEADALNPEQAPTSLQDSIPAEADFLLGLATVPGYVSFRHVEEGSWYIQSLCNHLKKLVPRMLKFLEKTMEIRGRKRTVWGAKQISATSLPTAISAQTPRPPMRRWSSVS
# UniProt P42575: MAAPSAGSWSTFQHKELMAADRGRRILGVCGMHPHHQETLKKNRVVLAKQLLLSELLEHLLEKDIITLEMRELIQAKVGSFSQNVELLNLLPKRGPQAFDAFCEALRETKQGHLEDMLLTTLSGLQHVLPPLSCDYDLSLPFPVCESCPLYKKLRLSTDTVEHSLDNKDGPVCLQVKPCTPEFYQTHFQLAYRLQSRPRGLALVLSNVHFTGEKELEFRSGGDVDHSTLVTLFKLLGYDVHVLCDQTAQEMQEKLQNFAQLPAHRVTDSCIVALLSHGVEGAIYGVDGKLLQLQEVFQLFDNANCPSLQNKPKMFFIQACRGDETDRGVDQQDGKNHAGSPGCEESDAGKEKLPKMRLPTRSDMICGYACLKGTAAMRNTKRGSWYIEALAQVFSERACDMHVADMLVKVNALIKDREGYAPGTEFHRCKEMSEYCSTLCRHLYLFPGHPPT
# UniProt Q8IVM0: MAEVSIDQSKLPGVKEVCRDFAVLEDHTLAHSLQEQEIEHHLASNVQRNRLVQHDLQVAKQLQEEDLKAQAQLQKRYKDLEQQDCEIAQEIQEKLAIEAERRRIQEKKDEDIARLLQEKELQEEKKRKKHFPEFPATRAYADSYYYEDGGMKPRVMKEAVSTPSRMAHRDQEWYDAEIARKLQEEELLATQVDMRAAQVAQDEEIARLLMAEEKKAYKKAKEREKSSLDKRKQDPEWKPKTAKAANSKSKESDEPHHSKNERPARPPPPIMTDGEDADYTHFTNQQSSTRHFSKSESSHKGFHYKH
# UniProt Q9Y6W3: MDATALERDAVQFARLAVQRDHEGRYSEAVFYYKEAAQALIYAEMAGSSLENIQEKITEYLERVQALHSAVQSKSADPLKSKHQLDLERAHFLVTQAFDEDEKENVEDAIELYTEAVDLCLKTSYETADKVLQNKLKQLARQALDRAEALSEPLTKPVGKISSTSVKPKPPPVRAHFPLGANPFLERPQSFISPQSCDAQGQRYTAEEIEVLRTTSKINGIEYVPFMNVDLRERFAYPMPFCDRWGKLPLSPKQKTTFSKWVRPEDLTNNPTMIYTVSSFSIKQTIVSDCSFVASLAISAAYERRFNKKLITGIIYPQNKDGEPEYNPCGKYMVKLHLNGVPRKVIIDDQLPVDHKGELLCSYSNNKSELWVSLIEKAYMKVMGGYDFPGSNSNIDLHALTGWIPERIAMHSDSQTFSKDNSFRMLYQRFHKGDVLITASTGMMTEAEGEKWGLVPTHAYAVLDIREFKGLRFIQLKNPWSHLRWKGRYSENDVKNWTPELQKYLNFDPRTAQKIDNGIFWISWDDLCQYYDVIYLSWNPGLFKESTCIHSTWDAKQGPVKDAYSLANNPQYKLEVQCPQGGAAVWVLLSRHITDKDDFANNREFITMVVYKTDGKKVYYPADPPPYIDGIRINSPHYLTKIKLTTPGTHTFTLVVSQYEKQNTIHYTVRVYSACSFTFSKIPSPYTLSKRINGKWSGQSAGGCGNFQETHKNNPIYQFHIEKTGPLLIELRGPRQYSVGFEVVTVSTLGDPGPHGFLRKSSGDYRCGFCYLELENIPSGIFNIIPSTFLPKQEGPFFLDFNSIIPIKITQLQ
# UniProt P50991: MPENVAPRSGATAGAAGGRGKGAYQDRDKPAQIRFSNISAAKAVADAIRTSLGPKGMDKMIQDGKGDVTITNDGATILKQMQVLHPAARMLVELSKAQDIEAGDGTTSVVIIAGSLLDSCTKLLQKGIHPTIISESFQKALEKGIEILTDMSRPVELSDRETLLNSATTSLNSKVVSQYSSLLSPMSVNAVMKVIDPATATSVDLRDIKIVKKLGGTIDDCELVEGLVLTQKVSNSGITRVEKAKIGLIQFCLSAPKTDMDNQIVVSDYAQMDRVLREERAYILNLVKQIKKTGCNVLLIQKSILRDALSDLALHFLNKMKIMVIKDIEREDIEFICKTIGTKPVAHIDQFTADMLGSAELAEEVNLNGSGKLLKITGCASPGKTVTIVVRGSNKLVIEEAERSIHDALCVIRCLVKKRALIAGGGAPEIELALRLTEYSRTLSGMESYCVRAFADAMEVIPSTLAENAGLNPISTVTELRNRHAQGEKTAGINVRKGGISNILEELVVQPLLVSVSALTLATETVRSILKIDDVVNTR
# UniProt Q9Y3X0: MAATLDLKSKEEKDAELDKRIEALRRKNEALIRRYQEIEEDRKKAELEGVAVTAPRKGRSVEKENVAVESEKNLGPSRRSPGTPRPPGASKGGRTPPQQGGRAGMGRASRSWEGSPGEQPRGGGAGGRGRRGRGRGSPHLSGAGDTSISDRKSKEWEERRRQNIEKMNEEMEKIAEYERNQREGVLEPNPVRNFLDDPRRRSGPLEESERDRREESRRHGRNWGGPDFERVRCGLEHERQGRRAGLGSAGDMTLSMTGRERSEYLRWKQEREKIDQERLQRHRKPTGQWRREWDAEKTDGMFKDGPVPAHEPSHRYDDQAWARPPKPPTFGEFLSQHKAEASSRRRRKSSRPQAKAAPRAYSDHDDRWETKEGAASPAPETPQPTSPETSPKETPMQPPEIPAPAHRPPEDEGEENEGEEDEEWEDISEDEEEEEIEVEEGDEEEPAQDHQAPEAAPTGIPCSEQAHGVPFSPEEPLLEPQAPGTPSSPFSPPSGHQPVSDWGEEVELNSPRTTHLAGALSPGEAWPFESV
# UniProt Q9UKL3: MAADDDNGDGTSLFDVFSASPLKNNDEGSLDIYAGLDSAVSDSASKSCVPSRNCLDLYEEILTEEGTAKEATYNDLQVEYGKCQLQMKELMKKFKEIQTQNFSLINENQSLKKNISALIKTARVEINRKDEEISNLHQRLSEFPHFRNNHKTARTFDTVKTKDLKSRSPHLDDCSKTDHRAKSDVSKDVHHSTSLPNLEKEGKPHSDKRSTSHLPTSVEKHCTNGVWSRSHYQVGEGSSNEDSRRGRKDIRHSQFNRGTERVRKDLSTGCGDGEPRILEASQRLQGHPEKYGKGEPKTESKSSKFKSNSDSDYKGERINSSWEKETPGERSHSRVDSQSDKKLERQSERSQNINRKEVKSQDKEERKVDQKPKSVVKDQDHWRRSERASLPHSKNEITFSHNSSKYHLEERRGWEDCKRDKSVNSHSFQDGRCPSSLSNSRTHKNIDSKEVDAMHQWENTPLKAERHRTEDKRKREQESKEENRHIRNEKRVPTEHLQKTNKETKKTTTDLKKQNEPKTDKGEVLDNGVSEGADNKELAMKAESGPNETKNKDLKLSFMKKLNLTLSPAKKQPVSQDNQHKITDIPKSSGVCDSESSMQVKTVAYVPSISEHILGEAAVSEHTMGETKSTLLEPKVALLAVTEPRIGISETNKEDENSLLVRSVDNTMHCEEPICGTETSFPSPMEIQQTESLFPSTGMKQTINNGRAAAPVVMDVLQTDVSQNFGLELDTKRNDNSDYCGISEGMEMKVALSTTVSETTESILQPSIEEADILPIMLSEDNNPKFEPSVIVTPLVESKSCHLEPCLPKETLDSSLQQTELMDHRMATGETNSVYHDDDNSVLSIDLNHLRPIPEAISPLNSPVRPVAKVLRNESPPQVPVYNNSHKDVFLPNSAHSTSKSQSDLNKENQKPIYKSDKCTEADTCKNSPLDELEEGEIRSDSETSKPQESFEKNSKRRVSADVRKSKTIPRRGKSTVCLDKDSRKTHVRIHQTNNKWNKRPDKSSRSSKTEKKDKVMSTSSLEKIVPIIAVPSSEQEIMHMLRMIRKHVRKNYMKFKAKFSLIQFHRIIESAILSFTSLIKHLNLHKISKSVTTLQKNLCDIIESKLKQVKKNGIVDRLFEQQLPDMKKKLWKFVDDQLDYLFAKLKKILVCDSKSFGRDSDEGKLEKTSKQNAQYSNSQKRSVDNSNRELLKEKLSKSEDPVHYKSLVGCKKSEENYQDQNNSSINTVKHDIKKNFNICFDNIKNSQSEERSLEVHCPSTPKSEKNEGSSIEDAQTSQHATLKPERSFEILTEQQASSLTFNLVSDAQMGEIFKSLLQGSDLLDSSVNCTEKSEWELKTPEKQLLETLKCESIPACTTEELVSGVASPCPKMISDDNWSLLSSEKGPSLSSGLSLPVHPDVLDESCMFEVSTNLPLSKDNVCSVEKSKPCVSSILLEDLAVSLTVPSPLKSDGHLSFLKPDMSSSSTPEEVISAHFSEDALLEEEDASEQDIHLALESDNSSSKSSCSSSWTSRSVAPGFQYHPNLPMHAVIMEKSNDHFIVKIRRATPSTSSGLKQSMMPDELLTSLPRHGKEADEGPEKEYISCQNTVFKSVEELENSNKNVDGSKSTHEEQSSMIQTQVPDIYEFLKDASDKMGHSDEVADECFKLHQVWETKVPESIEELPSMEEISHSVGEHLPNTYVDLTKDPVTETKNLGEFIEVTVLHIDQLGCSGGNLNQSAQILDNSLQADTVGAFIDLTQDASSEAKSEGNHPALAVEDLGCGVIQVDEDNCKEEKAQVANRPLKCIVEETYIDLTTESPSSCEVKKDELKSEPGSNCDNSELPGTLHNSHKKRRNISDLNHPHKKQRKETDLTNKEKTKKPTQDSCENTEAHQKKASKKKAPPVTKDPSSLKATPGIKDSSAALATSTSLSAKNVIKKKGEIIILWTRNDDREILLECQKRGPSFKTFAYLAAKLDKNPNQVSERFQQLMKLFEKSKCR
# UniProt P55211: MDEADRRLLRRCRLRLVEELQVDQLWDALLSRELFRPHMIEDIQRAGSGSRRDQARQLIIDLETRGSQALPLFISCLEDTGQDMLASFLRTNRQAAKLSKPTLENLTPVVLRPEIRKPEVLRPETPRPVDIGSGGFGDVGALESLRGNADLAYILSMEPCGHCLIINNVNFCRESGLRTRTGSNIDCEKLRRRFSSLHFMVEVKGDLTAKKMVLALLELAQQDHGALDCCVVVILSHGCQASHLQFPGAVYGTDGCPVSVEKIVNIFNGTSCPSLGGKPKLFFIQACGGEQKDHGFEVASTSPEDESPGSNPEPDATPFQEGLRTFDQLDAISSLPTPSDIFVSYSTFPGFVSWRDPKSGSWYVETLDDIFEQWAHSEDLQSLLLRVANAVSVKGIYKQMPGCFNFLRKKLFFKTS
# UniProt Q7Z6B0: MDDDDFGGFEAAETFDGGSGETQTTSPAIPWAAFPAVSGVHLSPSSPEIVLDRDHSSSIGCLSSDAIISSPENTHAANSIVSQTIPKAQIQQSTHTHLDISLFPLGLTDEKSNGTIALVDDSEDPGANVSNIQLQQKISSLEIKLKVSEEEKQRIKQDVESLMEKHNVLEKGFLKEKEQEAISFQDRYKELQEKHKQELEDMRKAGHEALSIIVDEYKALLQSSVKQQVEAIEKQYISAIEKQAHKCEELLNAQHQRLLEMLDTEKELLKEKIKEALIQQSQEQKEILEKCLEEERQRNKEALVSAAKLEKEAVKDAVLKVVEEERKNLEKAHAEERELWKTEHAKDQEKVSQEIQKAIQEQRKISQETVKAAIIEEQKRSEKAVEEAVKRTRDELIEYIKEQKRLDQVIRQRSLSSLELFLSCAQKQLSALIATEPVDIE
# UniProt Q01518, whole entry, looked up: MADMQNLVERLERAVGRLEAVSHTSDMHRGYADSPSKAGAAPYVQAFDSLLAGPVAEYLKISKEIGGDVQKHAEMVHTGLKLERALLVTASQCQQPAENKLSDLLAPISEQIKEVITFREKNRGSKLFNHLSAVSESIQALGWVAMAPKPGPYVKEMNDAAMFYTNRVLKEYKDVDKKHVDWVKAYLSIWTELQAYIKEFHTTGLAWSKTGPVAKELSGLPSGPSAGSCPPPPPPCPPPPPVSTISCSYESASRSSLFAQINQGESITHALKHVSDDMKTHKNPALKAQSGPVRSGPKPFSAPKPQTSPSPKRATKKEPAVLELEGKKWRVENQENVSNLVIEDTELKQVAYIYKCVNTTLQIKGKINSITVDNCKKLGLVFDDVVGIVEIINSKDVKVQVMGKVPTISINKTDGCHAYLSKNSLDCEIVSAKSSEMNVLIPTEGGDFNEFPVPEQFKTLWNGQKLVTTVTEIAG
# Compound: Cc1cc(ccc1-c1ccccc1)C(=O)N1CCCN(CC1)C(=O)CCl [compound 10]
# Assay: probe-labelled cysteine peptide fold change vs DMSO (competition) (log2 fold change); higher = less target engagement (more negative = stronger competition)
# Conditions: THP-1, incubation time: 4 h
# 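Also: competitive profiling in live THP-1 cells: cysteine peptides tagged with an iodoacetamide desthiobiotin (IA-DTB) probe, intensity after compound treatment relative to DMSO-treated cells.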
Target,probe-labelled cysteine peptide fold change (10 µM),probe-labelled cysteine peptide fold change (50 µM)
CASP10_Q92851_169_QGKIDEDNLTCLEDLCK (UniProt Q92851),-0.0825,-0.564
CASP2_P42575_30_ILGVCGMHPHHQETLKK (UniProt P42575),-0.432,-1.14
CCDC50_Q8IVM0_85_DLEQQDCEIAQEIQEK (UniProt Q8IVM0),-0.212,-0.214
CAPN7_Q9Y6W3_704_WSGQSAGGCGNFQETHK (UniProt Q9Y6W3),-0.0984,-0.113
CBLL1_Q75N03_172_GSLFMCSIVQGCK (UniProt Q75N03),-0.0741,0.219
CCT4_P50991_379_ITGCASPGK (UniProt P50991),-0.0252,-0.0456
CCDC9_Q9Y3X0_233_CGLEHER (UniProt Q9Y3X0),-0.251,-0.831
CAPNS1_P04632_190_SGTICSSELPGAFEAAGFHLNEHLYNMIIRR (UniProt P04632),0.0699,-0.19
CASP8AP2_Q9UKL3_174_SPHLDDCSK (UniProt Q9UKL3),-0.153,-0.0612
CAPZA1_P52907_157_TIDGQQTIIACIESHQFQPK (UniProt P52907),0.238,0.0986
CASP9_P55211_272_IVNIFNGTSCPSLGGKPK (UniProt P55211),-0.0912,-0.316
CCDC91_Q7Z6B0_424_SLSSLELFLSCAQK (UniProt Q7Z6B0),0.113,-0.107
CAPNS1_P04632_232_YSDESGNMDFDNFISCLVR (UniProt P04632),0.31,0.559
CAP1_Q01518_416_VPTISINKTDGCHAYLSK (UniProt Q01518),-0.167,-0.3

# Random excerpt: 2 entries already listed, in no set order.
Target,probe-labelled cysteine peptide fold change (10 µM),probe-labelled cysteine peptide fold change (50 µM)
CAP1_Q01518_416_VPTISINKTDGCHAYLSK (UniProt Q01518),-0.167,-0.3
CCDC50_Q8IVM0_85_DLEQQDCEIAQEIQEK (UniProt Q8IVM0),-0.212,-0.214

# From the supplement of paper PMC12067093, “Discovery and optimisation of a covalent ligand for TRIM25 and its application to targeted protein ubiquitination” (Chemical Science, 2025)
